# According to the supplement of paper PMC8728848:
# The list shows a part of the results.
# Key:
# Experiment in all cases: glycan array binding signal (z-score within array); higher = stronger binding
# Settings in all cases: glycan notation: IUPAC condensed, linker removed
# [1] = target: Man(a1-2)Man(a1-3)[Man(a1-2)Man(a1-6)]Man(a1-6)[Man(a1-2)Man(a1-2)Man(a1-3)]Man
# In short: (§1)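 Columns mapping to the same glycan were averaged after glycan names were converted to IUPAC-condensed notation. The data come from 3228 arrays in the Consortium for Functional Glycomics database, limited to those with an available protein sequence. Binding is reported as a within-array Z-score averaged across arrays of one protein sequence and across linkers.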
# [2] = target: Man(a1-2)Man(a1-3)[Man(a1-2)Man(a1-6)]Man(a1-6)[Man(a1-2)Man(a1-2)Man(a1-3)]Man(b1-4)GlcNAc(b1-4)GlcNAc
# In short: as §1
# [3] = target: Man(a1-2)Man(a1-3)[Man(a1-6)]Man(a1-6)[Man(a1-2)Man(a1-3)]Man(b1-4)GlcNAc(b1-4)GlcNAc
# In short: as §1
# [4] = target: Man(a1-2)Man(a1-6)[Man(a1-3)]Man(a1-6)[Man(a1-2)Man(a1-2)Man(a1-3)]Man
# In short: as §1
# [5] = target: Man(a1-2)Man(a1-6)[Man(a1-3)]Man(a1-6)[Man(a1-2)Man(a1-2)Man(a1-3)]Man(b1-4)GlcNAc(b1-4)GlcNAc
# In short: as §1
# [6] = target: Man(a1-3)[Man(a1-6)]Man
# In short: as §1
# [7] = target: Man(a1-3)[Man(a1-6)]Man(a1-6)[Man(a1-2)Man(a1-3)]Man(b1-4)GlcNAc(b1-4)GlcNAc
# In short: as §1
# [8] = target: Man(a1-3)[Man(a1-6)]Man(a1-6)[Man(a1-3)]Man
# In short: as §1
# [9] = target: Man(a1-3)[Man(a1-6)]Man(a1-6)[Man(a1-3)]Man(b1-4)GlcNAc(b1-4)GlcNAc
# In short: as §1
# [10] = target: Man(a1-3)[Man(a1-6)]Man(b1-4)GlcNAc(b1-4)GlcNAc
# In short: as §1
# [11] = target: Man(a1-3)[Man(a1-6)]Man(b1-4)GlcNAc(b1-4)[Fuc(a1-6)]GlcNAc
# In short: as §1
# [12] = target: Man(a1-6)Man
# In short: as §1
# [13] = target: Man(b1-4)GlcNAc
# In short: as §1
# [14] = target: MurNAc(b1-4)GlcNAc
# In short: as §1
# [15] = target: Neu5Ac(a2-3)Gal
# In short: as §1
# [16] = target: Neu5Ac(a2-3)Gal(b1-3)GalNAc
# In short: as §1
# [17] = target: Neu5Ac(a2-3)Gal(b1-3)GalNAc(b1-3)Gal(a1-4)Gal(b1-4)Glc
# In short: as §1
# [18] = target: Neu5Ac(a2-3)Gal(b1-3)GalNAc(b1-4)[Neu5Ac(a2-3)]Gal(b1-4)Glc
# In short: as §1
# [19] = target: Neu5Ac(a2-3)Gal(b1-3)GalNAc(b1-4)[Neu5Ac(a2-8)Neu5Ac(a2-3)]Gal(b1-4)Glc
# In short: as §1
# [20] = target: Neu5Ac(a2-3)Gal(b1-3)GalNAc6S
# In short: as §1
# [21] = target: Neu5Ac(a2-3)Gal(b1-3)GlcNAc
# In short: as §1
# [22] = target: Neu5Ac(a2-3)Gal(b1-3)GlcNAc(b1-2)Man
# In short: as §1
# [23] = target: Neu5Ac(a2-3)Gal(b1-3)GlcNAc(b1-2)Man(a1-3)[GlcNAc(b1-4)][Neu5Ac(a2-3)Gal(b1-3)GlcNAc(b1-2)Man(a1-6)]Man(b1-4)GlcNAc(b1-4)GlcNAc
# In short: as §1
# [24] = target: Neu5Ac(a2-3)Gal(b1-3)GlcNAc(b1-2)Man(a1-3)[Neu5Ac(a2-3)Gal(b1-3)GlcNAc(b1-2)Man(a1-6)]Man(b1-4)GlcNAc(b1-4)GlcNAc
# In short: as §1
# [25] = target: Neu5Ac(a2-3)Gal(b1-3)GlcNAc(b1-2)[Neu5Ac(a2-3)Gal(b1-3)GlcNAc(b1-4)]Man(a1-6)[Neu5Ac(a2-3)Gal(b1-3)GlcNAc(b1-2)Man(a1-3)]Man(b1-4)GlcNAc(b1-4)GlcNAc
# In short: as §1
# [26] = target: Neu5Ac(a2-3)Gal(b1-3)GlcNAc(b1-3)Gal(b1-3)GlcNAc
# In short: as §1
# [27] = target: Neu5Ac(a2-3)Gal(b1-3)GlcNAc(b1-3)Gal(b1-4)GlcNAc
# In short: as §1
# [28] = target: Neu5Ac(a2-3)Gal(b1-3)GlcNAc(b1-3)GalNAc
# In short: as §1
# [29] = target: Neu5Ac(a2-3)Gal(b1-3)GlcNAc(b1-4)Gal(b1-4)Glc
# In short: as §1
# [30] = target: Neu5Ac(a2-3)Gal(b1-3)GlcNAc(b1-6)GalNAc
# In short: as §1
# [31] = target: Neu5Ac(a2-3)Gal(b1-3)GlcNAc6S
# In short: as §1
# [32] = target: Neu5Ac(a2-3)Gal(b1-3)[Fuc(a1-4)]GlcNAc
# In short: as §1
# [33] = target: Neu5Ac(a2-3)Gal(b1-3)[Fuc(a1-4)]GlcNAc(b1-3)Gal(b1-3)[Fuc(a1-4)]GlcNAc
# In short: as §1
# [34] = target: Neu5Ac(a2-3)Gal(b1-3)[Fuc(a1-4)]GlcNAc(b1-3)Gal(b1-4)[Fuc(a1-3)]GlcNAc
# In short: as §1
# [35] = target: Neu5Ac(a2-3)Gal(b1-3)[GlcNAc(b1-6)]GalNAc
# In short: as §1
# [36] = target: Neu5Ac(a2-3)Gal(b1-3)[Neu5Ac(a2-6)]GalNAc
# In short: as §1
# [37] = target: Neu5Ac(a2-3)Gal(b1-3)[Neu5Ac(a2-6)]GlcNAc(b1-3)[Fuc(a1-3)[Gal(b1-4)]GlcNAc(b1-6)]Gal(b1-4)Glc
# In short: as §1
binder,measurement,setting,value
Epa3to2 (Candida glabrata) (protein) MGSSHHHHHHSSGLVPRGSHMKRELSSQNPFGYPIGCSPQDVAIIPGLTMELYSYPIVSGTPPNCYDASYVDPEYPRTGYLKRKMVGKSTGVTGNLNYKYSVEKACMVKYGNLPAGYNYNEPLTVSNFTMILYGYFKAQTTGLHTFFVNADDLLYINFGAGNAFDCCKREDSKTKLGEYVAYDIWHVDSSKNKVSLFLEKDLYYPIRMFFNNRDNNSSLDLSFSVNGATDQISDFSGYLYSVPDQPDTCPAHIGYDTTCR,glycan array binding signal (z-score),[1],-0.546
same,glycan array binding signal (z-score),[2],-1.12
same,glycan array binding signal (z-score),[3],-0.278
same,glycan array binding signal (z-score),[4],-1.63
same,glycan array binding signal (z-score),[5],1.81
same,glycan array binding signal (z-score),[6],1.28
same,glycan array binding signal (z-score),[7],3.92
same,glycan array binding signal (z-score),[8],0.52
same,glycan array binding signal (z-score),[9],1.83
same,glycan array binding signal (z-score),[10],0.159
same,glycan array binding signal (z-score),[11],0.075
same,glycan array binding signal (z-score),[12],0.982
same,glycan array binding signal (z-score),[13],1.59
same,glycan array binding signal (z-score),[14],-0.143
same,glycan array binding signal (z-score),[15],-0.898
same,glycan array binding signal (z-score),[16],-0.307
same,glycan array binding signal (z-score),[17],0.903
same,glycan array binding signal (z-score),[18],-0.337
same,glycan array binding signal (z-score),[19],-0.697
same,glycan array binding signal (z-score),[20],1.62
same,glycan array binding signal (z-score),[21],-0.685
same,glycan array binding signal (z-score),[22],-0.561
same,glycan array binding signal (z-score),[23],0.082
same,glycan array binding signal (z-score),[24],-0.658
same,glycan array binding signal (z-score),[25],0.1
same,glycan array binding signal (z-score),[26],-1.4
same,glycan array binding signal (z-score),[27],0.754
same,glycan array binding signal (z-score),[28],0.895
same,glycan array binding signal (z-score),[29],-1.01
same,glycan array binding signal (z-score),[30],1.42
same,glycan array binding signal (z-score),[31],0.457
same,glycan array binding signal (z-score),[32],-0.941
same,glycan array binding signal (z-score),[33],0.389
same,glycan array binding signal (z-score),[34],-0.064
same,glycan array binding signal (z-score),[35],1.58
same,glycan array binding signal (z-score),[36],0.695
same,glycan array binding signal (z-score),[37],0.598

# Some of the entries above, reformatted.
binder | measurement | setting | value
Epa3to2 (Candida glabrata) (protein) MGSSHHHHHHSSGLVPRGSHMKRELSSQNPFGYPIGCSPQDVAIIPGLTMELYSYPIVSGTPPNCYDASYVDPEYPRTGYLKRKMVGKSTGVTGNLNYKYSVEKACMVKYGNLPAGYNYNEPLTVSNFTMILYGYFKAQTTGLHTFFVNADDLLYINFGAGNAFDCCKREDSKTKLGEYVAYDIWHVDSSKNKVSLFLEKDLYYPIRMFFNNRDNNSSLDLSFSVNGATDQISDFSGYLYSVPDQPDTCPAHIGYDTTCR | glycan array binding signal (z-score) | [22] | -0.561
same | glycan array binding signal (z-score) | [23] | 0.082
